The values that follow come from paper PMC10904832.

In the assay the target is T1, MIC60 (human (endogenous in HeLa)) (UniProt Q16891).
T1 sequence: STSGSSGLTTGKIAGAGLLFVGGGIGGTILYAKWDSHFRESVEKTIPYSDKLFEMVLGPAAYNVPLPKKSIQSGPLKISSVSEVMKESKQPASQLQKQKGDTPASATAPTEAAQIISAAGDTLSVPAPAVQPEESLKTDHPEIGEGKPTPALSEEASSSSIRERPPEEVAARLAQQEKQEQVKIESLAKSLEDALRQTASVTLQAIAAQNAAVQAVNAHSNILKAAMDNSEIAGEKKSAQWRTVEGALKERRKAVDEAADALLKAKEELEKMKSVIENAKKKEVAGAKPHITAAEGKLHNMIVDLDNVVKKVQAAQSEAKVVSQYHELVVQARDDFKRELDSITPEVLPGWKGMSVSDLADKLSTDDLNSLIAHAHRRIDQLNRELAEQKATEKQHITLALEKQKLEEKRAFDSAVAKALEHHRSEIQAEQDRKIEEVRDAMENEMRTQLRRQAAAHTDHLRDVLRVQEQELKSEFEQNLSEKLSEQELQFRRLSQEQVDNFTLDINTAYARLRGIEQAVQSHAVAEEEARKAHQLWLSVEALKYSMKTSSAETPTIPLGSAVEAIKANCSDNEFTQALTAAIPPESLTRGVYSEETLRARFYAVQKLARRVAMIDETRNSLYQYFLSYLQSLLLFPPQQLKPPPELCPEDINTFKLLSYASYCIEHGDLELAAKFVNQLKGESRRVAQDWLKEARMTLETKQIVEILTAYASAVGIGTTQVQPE
Kind of assay: proximity ligation; Duolink in situ PLA in fixed (4% paraformaldehyde), permeabilised (0.2% Triton X-100) HeLa cells, with and without CCCP for 3 h; endogenous proteins detected with pairs of primary antibodies; PLA dots per cell counted.

No constants are given. Whether binding was seen depends on the method and setting. Binding seen in cells or lysates may run through a third protein. Some results given as binding are weak or reduced against the parent protein; the word gives no strength.

B1: SAM50 (protein, UniProt Q9Y512 1-469)
chain: MGTVHARSLEPLPSSGPDFGGLGEEAEFVEVEPEAKQEILENKDVVVQHVHFDGLGRTKDDIIICEIGDVFKAKNLIEVMRKSHEAREKLLRLGIFRQVDVLIDTCQGDDALPNGLDVTFEVTELRRLTGSYNTMVGNNEGSMVLGLKLPNLLGRAEKVTFQFSYGTKETSYGLSFFKPRPGNFERNFSVNLYKVTGQFPWSSLRETDRGMSAEYSFPIWKTSHTVKWEGVWRELGCLSRTASFAVRKESGHSLKSSLSHAMVIDSRNSSILPRRGALLKVNQELAGYTGGDVSFIKEDFELQLNKQLIFDSVFSASFWGGMLVPIGDKPSSIADRFYLGGPTSIRGFSMHSIGPQSEGDYLGGEAYWAGGLHLYTPLPFRPGQGGFGELFRTHFFLNAGNLCNLNYGEGPKAHIRKLAECIRWSYGAGIVLRLGNIARLELNYCVPMGVQTGDRICDGVQFGAGIRFL
As for B1, the binding result was “binds”.
